Results as given in PMC3167847.

Protein sequences, listed by entry. Tags and fused reporters are not part of them. Lines headed by an entry give the natural chain unless they say otherwise; changes in a name come on top. Residues count along the entry.
UniProt P13346: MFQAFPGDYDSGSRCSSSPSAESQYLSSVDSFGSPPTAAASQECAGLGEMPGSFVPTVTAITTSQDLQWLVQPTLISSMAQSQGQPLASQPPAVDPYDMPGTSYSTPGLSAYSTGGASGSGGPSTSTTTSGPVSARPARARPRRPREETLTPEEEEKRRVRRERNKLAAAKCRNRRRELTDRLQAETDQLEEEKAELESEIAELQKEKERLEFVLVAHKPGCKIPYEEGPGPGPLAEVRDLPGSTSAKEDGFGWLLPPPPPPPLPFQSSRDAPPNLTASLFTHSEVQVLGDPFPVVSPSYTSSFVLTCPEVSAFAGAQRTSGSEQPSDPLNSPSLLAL
UniProt P47930: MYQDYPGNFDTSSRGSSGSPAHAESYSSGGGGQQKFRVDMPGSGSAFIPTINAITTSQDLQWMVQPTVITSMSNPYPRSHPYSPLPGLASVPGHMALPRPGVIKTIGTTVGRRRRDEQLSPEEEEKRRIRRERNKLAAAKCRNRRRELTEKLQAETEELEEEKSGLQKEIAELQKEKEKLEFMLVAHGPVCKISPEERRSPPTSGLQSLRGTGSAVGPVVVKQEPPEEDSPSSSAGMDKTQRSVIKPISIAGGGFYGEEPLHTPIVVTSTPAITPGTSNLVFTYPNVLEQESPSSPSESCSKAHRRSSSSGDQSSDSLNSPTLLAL
UniProt P09450: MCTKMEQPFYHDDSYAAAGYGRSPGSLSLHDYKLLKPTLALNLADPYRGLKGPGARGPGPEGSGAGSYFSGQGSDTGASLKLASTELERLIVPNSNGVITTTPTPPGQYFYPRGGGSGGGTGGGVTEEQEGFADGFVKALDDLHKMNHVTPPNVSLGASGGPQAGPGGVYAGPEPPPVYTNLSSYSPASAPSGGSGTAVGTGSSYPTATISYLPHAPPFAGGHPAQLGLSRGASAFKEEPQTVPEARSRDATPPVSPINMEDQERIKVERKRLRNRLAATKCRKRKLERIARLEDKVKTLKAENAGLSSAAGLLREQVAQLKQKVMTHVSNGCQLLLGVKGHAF
UniProt P15066: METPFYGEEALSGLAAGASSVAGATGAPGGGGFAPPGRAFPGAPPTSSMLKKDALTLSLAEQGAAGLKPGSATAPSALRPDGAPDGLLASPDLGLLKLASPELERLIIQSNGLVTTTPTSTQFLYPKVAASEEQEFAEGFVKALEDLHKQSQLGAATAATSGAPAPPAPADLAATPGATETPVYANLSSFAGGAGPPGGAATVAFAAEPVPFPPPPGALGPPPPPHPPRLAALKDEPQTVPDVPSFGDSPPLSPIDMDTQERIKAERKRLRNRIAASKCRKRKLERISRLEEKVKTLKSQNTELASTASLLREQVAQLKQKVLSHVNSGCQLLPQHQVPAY
UniProt P01101, whole entry: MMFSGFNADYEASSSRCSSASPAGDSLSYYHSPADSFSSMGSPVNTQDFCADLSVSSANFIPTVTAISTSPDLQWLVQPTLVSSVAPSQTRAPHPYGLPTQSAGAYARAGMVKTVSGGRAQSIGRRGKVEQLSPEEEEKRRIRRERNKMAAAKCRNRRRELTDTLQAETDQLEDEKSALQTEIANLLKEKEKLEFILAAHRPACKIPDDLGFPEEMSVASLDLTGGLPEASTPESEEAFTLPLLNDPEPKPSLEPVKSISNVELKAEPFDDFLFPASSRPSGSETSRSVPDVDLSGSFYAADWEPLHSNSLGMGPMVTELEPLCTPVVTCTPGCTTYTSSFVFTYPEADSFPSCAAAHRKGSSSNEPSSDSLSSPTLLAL
UniProt P05627, whole entry: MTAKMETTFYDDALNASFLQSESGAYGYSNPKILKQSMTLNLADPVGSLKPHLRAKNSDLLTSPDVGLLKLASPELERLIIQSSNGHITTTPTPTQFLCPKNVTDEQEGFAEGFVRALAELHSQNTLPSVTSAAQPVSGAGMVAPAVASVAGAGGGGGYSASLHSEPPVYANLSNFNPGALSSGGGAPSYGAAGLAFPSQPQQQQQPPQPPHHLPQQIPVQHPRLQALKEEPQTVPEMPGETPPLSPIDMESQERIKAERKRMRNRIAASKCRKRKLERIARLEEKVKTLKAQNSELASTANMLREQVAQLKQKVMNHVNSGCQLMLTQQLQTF
UniProt P15307, 2-587: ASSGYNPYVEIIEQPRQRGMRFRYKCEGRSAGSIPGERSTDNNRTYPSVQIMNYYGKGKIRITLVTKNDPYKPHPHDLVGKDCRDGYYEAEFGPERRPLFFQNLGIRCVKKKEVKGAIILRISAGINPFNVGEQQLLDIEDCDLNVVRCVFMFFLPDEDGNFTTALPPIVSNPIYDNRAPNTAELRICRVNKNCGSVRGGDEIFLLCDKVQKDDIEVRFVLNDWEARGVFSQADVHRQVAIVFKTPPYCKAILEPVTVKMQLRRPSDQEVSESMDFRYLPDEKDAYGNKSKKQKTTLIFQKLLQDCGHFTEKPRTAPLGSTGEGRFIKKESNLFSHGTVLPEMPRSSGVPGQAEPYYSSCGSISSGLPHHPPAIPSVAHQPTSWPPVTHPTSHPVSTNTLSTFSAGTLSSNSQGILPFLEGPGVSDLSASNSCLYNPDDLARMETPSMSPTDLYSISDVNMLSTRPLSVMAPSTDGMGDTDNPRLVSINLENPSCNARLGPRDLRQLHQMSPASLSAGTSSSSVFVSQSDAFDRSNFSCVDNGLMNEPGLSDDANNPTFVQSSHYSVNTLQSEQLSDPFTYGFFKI
UniProt Q04207, whole entry: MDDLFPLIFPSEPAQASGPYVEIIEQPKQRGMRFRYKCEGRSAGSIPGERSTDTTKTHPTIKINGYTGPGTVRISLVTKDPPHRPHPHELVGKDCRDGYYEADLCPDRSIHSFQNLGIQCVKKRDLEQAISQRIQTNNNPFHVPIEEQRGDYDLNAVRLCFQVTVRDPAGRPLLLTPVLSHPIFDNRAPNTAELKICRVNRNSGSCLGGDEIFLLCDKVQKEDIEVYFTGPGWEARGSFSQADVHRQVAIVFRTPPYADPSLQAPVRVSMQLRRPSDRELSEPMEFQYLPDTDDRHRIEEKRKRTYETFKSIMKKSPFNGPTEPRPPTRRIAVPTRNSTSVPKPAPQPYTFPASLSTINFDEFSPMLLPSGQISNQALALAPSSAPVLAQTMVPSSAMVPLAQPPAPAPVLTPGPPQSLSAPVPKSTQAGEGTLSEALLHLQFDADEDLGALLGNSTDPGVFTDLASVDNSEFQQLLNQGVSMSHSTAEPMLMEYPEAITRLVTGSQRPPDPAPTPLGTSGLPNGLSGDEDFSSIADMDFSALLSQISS
UniProt O88942: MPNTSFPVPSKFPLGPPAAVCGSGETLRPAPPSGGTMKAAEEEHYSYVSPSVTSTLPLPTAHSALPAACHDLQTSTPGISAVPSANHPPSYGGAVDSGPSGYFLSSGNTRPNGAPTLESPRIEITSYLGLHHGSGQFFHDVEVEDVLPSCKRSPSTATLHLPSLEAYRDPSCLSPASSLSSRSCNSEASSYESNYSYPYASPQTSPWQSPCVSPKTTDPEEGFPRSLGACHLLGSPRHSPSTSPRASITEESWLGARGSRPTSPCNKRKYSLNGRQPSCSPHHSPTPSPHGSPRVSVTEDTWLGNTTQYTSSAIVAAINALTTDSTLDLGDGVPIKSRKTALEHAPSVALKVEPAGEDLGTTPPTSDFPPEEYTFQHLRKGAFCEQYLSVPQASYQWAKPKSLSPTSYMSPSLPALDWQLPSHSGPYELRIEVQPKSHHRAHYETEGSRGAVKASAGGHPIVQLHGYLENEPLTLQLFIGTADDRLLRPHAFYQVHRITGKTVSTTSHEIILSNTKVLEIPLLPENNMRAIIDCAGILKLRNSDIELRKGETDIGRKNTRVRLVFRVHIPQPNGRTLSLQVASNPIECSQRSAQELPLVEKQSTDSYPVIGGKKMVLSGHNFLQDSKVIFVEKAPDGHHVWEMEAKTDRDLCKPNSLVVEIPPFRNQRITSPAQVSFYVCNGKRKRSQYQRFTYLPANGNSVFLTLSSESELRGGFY

Tests used:
Experiment in all cases: EMSA supershift
[1] = biological target: Fos B (Mus musculus (11A2 T cell line)) (UniProt P13346); settings: PMA+ionomycin 4 h, little or no TNF effect; 5 ug nuclear extract, 32P probe, 15 min at room temperature, 6% native PAGE; antibody 1 ug preincubated 10 min; protein in an extract; label: 32P end label
[2] = biological target: Fra-2 (Mus musculus (11A2 T cell line)) (UniProt P47930); settings: PMA+ionomycin 4 h, little or no TNF effect; 5 ug nuclear extract, 32P probe, 15 min at room temperature, 6% native PAGE; antibody 1 ug preincubated 10 min; protein in an extract; label: 32P end label
[3] = biological target: Jun B (Mus musculus (11A2 T cell line)) (UniProt P09450); settings: PMA+ionomycin 4 h, modestly reduced in TNF-treated cell extract; 5 ug nuclear extract, 32P probe, 15 min at room temperature, 6% native PAGE; antibody 1 ug preincubated 10 min; protein in an extract; label: 32P end label
[4] = biological target: Jun D (Mus musculus (11A2 T cell line)) (UniProt P15066); settings: PMA+ionomycin 4 h, little or no TNF effect; 5 ug nuclear extract, 32P probe, 15 min at room temperature, 6% native PAGE; antibody 1 ug preincubated 10 min; protein in an extract; label: 32P end label
[5] = biological target: c-Fos (Mus musculus (11A2 T cell line)) (UniProt P01101); settings: PMA+ionomycin 4 h, modestly reduced in TNF-treated cell extract; 5 ug nuclear extract, 32P probe, 15 min at room temperature, 6% native PAGE; antibody 1 ug preincubated 10 min; protein in an extract; label: 32P end label
[6] = biological target: c-Jun (Mus musculus (11A2 T cell line)) (UniProt P05627); settings: PMA+ionomycin 4 h, little or no TNF effect, data not shown; 5 ug nuclear extract, 32P probe, 15 min at room temperature, 6% native PAGE; antibody 1 ug preincubated 10 min; protein in an extract; label: 32P end label
[7] = biological target: c-Rel (Mus musculus (11A2 T cell line)) (UniProt P15307); settings: PMA+ionomycin 4 h, complex I, less in TNF-treated cell extract; 5 ug nuclear extract, 32P probe, 15 min at room temperature, 6% native PAGE; antibody 1 ug preincubated 10 min; protein in an extract; label: 32P end label
[8] = biological target: T1, p50 (NF-kB1) (Mus musculus (11A2 T cell line)) (UniProt P25799); settings: PMA+ionomycin 4 h, complexes I and II, less in TNF-treated cell extract; 5 ug nuclear extract, 32P probe, 15 min at room temperature, 6% native PAGE; antibody 1 ug preincubated 10 min; protein in an extract; label: 32P end label
T1 sequence (looked up, limits assumed): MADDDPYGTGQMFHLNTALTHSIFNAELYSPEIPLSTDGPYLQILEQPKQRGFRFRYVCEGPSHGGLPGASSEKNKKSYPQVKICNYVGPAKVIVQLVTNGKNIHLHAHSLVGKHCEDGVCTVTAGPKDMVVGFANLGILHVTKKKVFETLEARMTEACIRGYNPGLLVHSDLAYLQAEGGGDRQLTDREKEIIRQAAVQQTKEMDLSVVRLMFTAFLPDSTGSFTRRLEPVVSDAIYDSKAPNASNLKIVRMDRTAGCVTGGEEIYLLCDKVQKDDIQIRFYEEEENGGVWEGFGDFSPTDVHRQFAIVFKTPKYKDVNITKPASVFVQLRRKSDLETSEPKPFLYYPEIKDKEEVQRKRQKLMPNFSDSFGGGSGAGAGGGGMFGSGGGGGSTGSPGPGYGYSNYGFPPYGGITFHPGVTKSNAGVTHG

[9] = biological target: p65 (RelA) (Mus musculus (11A2 T cell line)) (UniProt Q04207); settings: PMA+ionomycin 4 h, complex I, less in TNF-treated cell extract; 5 ug nuclear extract, 32P probe, 15 min at room temperature, 6% native PAGE; antibody 1 ug preincubated 10 min; protein in an extract; label: 32P end label
[10] = biological target: NFAT2 (NFATc1) (Mus musculus (11A2 T cell line)) (UniProt O88942); settings: PMA+ionomycin 4 h, similar in control and TNF-treated cell extract; 5 ug nuclear extract, 32P probe, 15 min at room temperature, 6% native PAGE; antibody 1 ug preincubated 10 min; protein in an extract; label: 32P end label

Measured: binding result

CGCTTGATGAGTCAGCCGGAA (double strand) [AP-1 oligonucleotide]
binds: [1] | [2] | [3] | [4] | [5] | [6]

AGTTGAGGGGACTTTCCCAGG (double strand) [NF-kB consensus oligonucleotide]
binds: [7] | [8] | [9]

CGCCCAAAGAGGAAAATTTGTTTCATA (double strand) [NFAT/AP-1 oligonucleotide]
binds: [10]

The exact form of at least one protein or probe is not confirmed. Results from cells or extracts need not show a direct contact. For some of these results: At least one verdict was read from the data and is not stated in words by the source. For some of these results: Protein sequences can lack the tags named with them.
